Experimental data: PubChem BioAssay AID686943 (Drosophila RNAi Screening Center, 2013)
In all, the deposit lists about 23,000 reagents; below is a random part of those that have a named target and a result. 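Extra replicates exist only for a retested subset of genes; insulin dose and duration not given; both raised and lowered dpERK matter.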 Names joined by + are all predicted targets of the reagent. Further read-outs or replicates are left out here. Reagent sequences are not shown. Not stated in the record: the amount of reagent, the time to read-out.

Screen: 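Knockdowns that increase or decrease active ERK after insulin receptor stimulation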 (primary screen)
Cells: Drosophila S2R+ haemocyte-like cells expressing YFP-tagged ERK (Rolled)
Reagent: long dsRNA against Drosophila genes
Challenge: insulin stimulation versus unstimulated cells; dose and duration not given
Read-out: 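Antibody staining for doubly phosphorylated ERK divided by ERK-YFP signal, as plate z-scores, in insulin-treated and untreated cells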
Direction: replicate 1, z-score of dpERK with insulin: higher = more active ERK per ERK-YFP after insulin

stai (GeneID 33863) [DRSC02920]
- replicate 1, z-score of dpERK with insulin: 0.67

stai (GeneID 33863) [DRSC22235]
- replicate 1, z-score of dpERK with insulin: -0.01

Rab27 (GeneID 31103) [DRSC18567]
- replicate 1, z-score of dpERK with insulin: 0.01

CG3842 (GeneID 31576) [DRSC18326]
- replicate 1, z-score of dpERK with insulin: -0.41

CG31730 (GeneID 318920) [DRSC01308]
- replicate 1, z-score of dpERK with insulin: -0.15

CG42512 + CG32573 [DRSC19532]
- replicate 1, z-score of dpERK with insulin: 0.33

CG42512 + CG32573 [DRSC19906]
- replicate 1, z-score of dpERK with insulin: 0.06

CG42512 + CG32573 [DRSC22782]
- replicate 1, z-score of dpERK with insulin: 1.65

CG4161 (GeneID 34907) [DRSC01930]
- replicate 1, z-score of dpERK with insulin: 0.99

CG10031 (GeneID 33594) [DRSC00286]
- replicate 1, z-score of dpERK with insulin: -0.85

U2af50 (GeneID 32602) [DRSC20297]
- replicate 1, z-score of dpERK with insulin: -1.55

U2af50 (GeneID 32602) [DRSC22867]
- replicate 1, z-score of dpERK with insulin: -2.01

CG13488 (GeneID 37496) [DRSC04133]
- replicate 1, z-score of dpERK with insulin: -0.37

Tet (GeneID 38347) [DRSC08006]
- replicate 1, z-score of dpERK with insulin: 0.8

Tet (GeneID 38347) [DRSC08550]
- replicate 1, z-score of dpERK with insulin: -2.39

Tet (GeneID 38347) [DRSC08646]
- replicate 1, z-score of dpERK with insulin: 0.54

PGRP-LC (GeneID 39063) [DRSC08980]
- replicate 1, z-score of dpERK with insulin: -0.25

PGRP-LC (GeneID 39063) [DRSC10416]
- replicate 1, z-score of dpERK with insulin: 0.77

PGRP-LC (GeneID 39063) [DRSC10417]
- replicate 1, z-score of dpERK with insulin: -0.07

Veneno (GeneID 41000) [DRSC16537]
- replicate 1, z-score of dpERK with insulin: -0.21

Aatf (GeneID 33943) [DRSC02131]
- replicate 1, z-score of dpERK with insulin: -0.22

CCHa2 (GeneID 41648) [DRSC14835]
- replicate 1, z-score of dpERK with insulin: 0.53

gNacalpha (GeneID 33279) [DRSC00654]
- replicate 1, z-score of dpERK with insulin: -0.18

CG9775 (GeneID 40576) [DRSC12330]
- replicate 1, z-score of dpERK with insulin: 0.84

CG9775 (GeneID 40576) [DRSC22667]
- replicate 1, z-score of dpERK with insulin: 0.22

CG34221 (GeneID 5740574) [DRSC06150]
- replicate 1, z-score of dpERK with insulin: 0.29

Ip6k (GeneID 37465) [DRSC04054]
- replicate 1, z-score of dpERK with insulin: -1.64

CG11125 (GeneID 35669) [DRSC06042]
- replicate 1, z-score of dpERK with insulin: -0.23

CG10898 (GeneID 41384) [DRSC14279]
- replicate 1, z-score of dpERK with insulin: 0

Ugt36A1 (GeneID 44058) [DRSC00748]
- replicate 1, z-score of dpERK with insulin: 0.47

Tep2 (GeneID 34044) [DRSC02679]
- replicate 1, z-score of dpERK with insulin: -0.83

Tep2 (GeneID 34044) [DRSC03451]
- replicate 1, z-score of dpERK with insulin: -0.45

Reprinted from the listing (2 entries):
CG10898 (GeneID 41384) [DRSC14279]
- replicate 1, z-score of dpERK with insulin: 0

Ugt36A1 (GeneID 44058) [DRSC00748]
- replicate 1, z-score of dpERK with insulin: 0.47
